Some entries share one result that the patent states for a list of compounds.
Assays:
[1] = test system: SRB (sulfate reducing bacteria); experiment: Biocide efficacy study on high TDS (10%) fluid sample, Rapid SRB Detection Pouches (thin-film culture device); format: cell-based; conditions: 24-hour biocide contact, dose level not singled out, after approximately 48 hours, 32° C
[2] = test system: SRB (sulfate reducing bacteria); experiment: Biocide efficacy study on low TDS (1%) fluid sample, Rapid SRB Detection Pouches (thin-film culture device); format: cell-based; conditions: 24-hour biocide contact, dose level not singled out (biocide groups), after approximately 48 hours, 32° C

Compound	SRB count [1]	SRB count [2]
O=CCCCC=O [glutaraldehyde]	≤ 10^1 bacteria/mL	–
c1ncncn1 [triazine]	–	≤ 10^1 bacteria/mL
